This note sets out measurements from doi:10.1101/2021.03.25.436271.

By UniProt entry, the sequences of proteins in these tests, tags left out.
UniProt Q13158: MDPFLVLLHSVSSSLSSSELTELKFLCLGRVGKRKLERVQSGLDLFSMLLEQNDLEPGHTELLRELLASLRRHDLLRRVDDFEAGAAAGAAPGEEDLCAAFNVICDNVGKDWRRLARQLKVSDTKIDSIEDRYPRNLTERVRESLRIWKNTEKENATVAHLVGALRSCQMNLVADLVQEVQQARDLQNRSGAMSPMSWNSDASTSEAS
UniProt Q9H1R3: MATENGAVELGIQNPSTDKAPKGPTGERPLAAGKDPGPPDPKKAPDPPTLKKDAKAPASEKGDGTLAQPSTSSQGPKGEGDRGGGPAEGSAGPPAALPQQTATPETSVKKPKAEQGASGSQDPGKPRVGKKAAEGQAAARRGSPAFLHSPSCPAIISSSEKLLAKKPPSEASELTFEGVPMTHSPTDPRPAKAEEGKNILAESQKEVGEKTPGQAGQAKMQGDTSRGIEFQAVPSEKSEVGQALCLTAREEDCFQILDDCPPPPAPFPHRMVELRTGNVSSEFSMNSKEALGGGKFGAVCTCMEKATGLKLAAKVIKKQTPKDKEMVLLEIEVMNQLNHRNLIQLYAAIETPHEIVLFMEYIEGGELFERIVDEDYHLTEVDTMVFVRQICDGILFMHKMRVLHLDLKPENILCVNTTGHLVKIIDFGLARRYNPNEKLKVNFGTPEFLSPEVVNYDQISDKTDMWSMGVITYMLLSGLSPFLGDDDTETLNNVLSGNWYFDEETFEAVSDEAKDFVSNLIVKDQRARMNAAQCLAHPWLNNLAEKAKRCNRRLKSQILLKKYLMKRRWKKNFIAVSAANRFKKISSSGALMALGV

In the assay the target is FADD-TAP (Fas-associated death domain protein with a C-terminal TAP affinity tag) (UniProt Q13158). As to the kind of experiment: affinity purification with mass spectrometry.

No constants are given. Whether binding was seen depends on the method and setting. Binding seen in cells or lysates may run through a third protein. A yes stands for co-enrichment or nearness to the bait. Other partners may have been found.

In the case of “Myosin Light Chain Kinase 2 (MYLK2) (from UniProt Q9H1R3 1-596) (enzyme)”, the binding entry is on record as “binds”.
